{"source": "PubChem BioAssay AID1259424, University of Nebraska Medical Center | 2018", "purpose": "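Seek colon cancer survival genes behaving like KSR1, using a six-gene signature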 (primary screen)", "system": "human HCT116 colon cancer cells", "knock-down reagent": "siRNA pool against human genes, 50 nM", "measurement": "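Six signature mRNAs by branched-DNA multiplex assay, scaled to two housekeeping genes and non-targeting median, log2; matched to mean KSR1 knockdown profile by Pearson correlation and euclidean distance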", "reading the numbers": "mean correlation with KSR1 profile: higher = expression change more like KSR1 knockdown; mean distance from KSR1 profile: higher = expression change less like KSR1 knockdown", "note": "In all, the deposit lists about 14,000 reagents; below is a random part of them. 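Higher correlation or smaller distance means closer resemblance to KSR1 loss; control wells, including KSR1 knockdowns, recur on many plates.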 Not all columns of the deposit are shown. Not given: the time to read-out."}
{"Target gene":"BMI1","mean correlation with KSR1 profile":-0.67,"mean distance from KSR1 profile":1.89}
{"Target gene":"ZSCAN12","mean correlation with KSR1 profile":-0.541,"mean distance from KSR1 profile":1.21}
{"Target gene":"ZBTB32","mean correlation with KSR1 profile":0.0144,"mean distance from KSR1 profile":2.1}
{"Target gene":"ARHGDIB","mean correlation with KSR1 profile":-0.0936,"mean distance from KSR1 profile":1.15}
{"Target gene":"GIPC2","mean correlation with KSR1 profile":-0.459,"mean distance from KSR1 profile":1.97}
{"Target gene":"ZNF347","mean correlation with KSR1 profile":0.213,"mean distance from KSR1 profile":1.64}
{"Target gene":"FRYL","mean correlation with KSR1 profile":-0.615,"mean distance from KSR1 profile":2.05}
{"Target gene":"HADHB","mean correlation with KSR1 profile":0.0543,"mean distance from KSR1 profile":2.49}
{"Target gene":"ALDH9A1","mean correlation with KSR1 profile":0.0803,"mean distance from KSR1 profile":1.13}
{"Target gene":"FAM124B","mean correlation with KSR1 profile":0.674,"mean distance from KSR1 profile":1.2}
{"Target gene":"PAX2","mean correlation with KSR1 profile":-0.147,"mean distance from KSR1 profile":2.37}
{"Target gene":"SLBP","mean correlation with KSR1 profile":0.318,"mean distance from KSR1 profile":1.67}
{"Target gene":"FOLR1","mean correlation with KSR1 profile":-0.652,"mean distance from KSR1 profile":3.56}
{"Target gene":"STRC","mean correlation with KSR1 profile":-0.163,"mean distance from KSR1 profile":3.19}
{"Target gene":"PNLIP","mean correlation with KSR1 profile":-0.412,"mean distance from KSR1 profile":2.12}
{"Target gene":"TSBP1","mean correlation with KSR1 profile":-0.279,"mean distance from KSR1 profile":3.6}
{"Target gene":"TBX5","mean correlation with KSR1 profile":-0.384,"mean distance from KSR1 profile":2.5}
{"Target gene":"NMT2","mean correlation with KSR1 profile":-0.4,"mean distance from KSR1 profile":1.94}
{"Target gene":"GOLPH3","mean correlation with KSR1 profile":-0.0273,"mean distance from KSR1 profile":3.27}
{"Target gene":"RBM34","mean correlation with KSR1 profile":-0.155,"mean distance from KSR1 profile":2.6}
{"Target gene":"SSX2","mean correlation with KSR1 profile":-0.122,"mean distance from KSR1 profile":1.92}
{"Target gene":"ARID3A","mean correlation with KSR1 profile":-0.922,"mean distance from KSR1 profile":3.86}
{"Target gene":"GGT5","mean correlation with KSR1 profile":0.466,"mean distance from KSR1 profile":2.1}
{"Target gene":"HLA-DPB1","mean correlation with KSR1 profile":-0.166,"mean distance from KSR1 profile":1.9}
{"Target gene":"GPR37L1","mean correlation with KSR1 profile":0.446,"mean distance from KSR1 profile":1.84}
{"Target gene":"C21orf58","mean correlation with KSR1 profile":0.00607,"mean distance from KSR1 profile":1.97}
{"Target gene":"RABGGTA","mean correlation with KSR1 profile":-0.442,"mean distance from KSR1 profile":3.58}
{"Target gene":"NCLN","mean correlation with KSR1 profile":0.426,"mean distance from KSR1 profile":3.6}
{"Target gene":"PSMD7","mean correlation with KSR1 profile":0.566,"mean distance from KSR1 profile":2.77}
{"Target gene":"SMCO4","mean correlation with KSR1 profile":-0.603,"mean distance from KSR1 profile":3.89}
{"Target gene":"SLC25A15","mean correlation with KSR1 profile":0.509,"mean distance from KSR1 profile":3.08}
{"Target gene":"RNF34","mean correlation with KSR1 profile":0.5,"mean distance from KSR1 profile":1.65}
{"Target gene":"SECISBP2","mean correlation with KSR1 profile":-0.753,"mean distance from KSR1 profile":1.94}
{"Target gene":"PTH1R","mean correlation with KSR1 profile":0.709,"mean distance from KSR1 profile":1.64}
{"Target gene":"AEBP1","mean correlation with KSR1 profile":-0.21,"mean distance from KSR1 profile":2.34}
{"Target gene":"MYLK","mean correlation with KSR1 profile":0.337,"mean distance from KSR1 profile":1.7}
